Source: patent US6410751B1, “Water soluble tri-substituted 1, 2-dioxetane compounds having increased storage stability, synthetic processes and intermediates” (Lumigen, Inc., priority 1995, dated 2002)
For at least one compound, name, drawing or mass did not settle the structure.

Test: Enhancement of luminescent signal of a reagent based on dioxetane 1 by enhancers and fluorescers
Settings: fluorescer 3 mM, without Enhancer A
Excerpt: As part of the optimization of a reagent based on dioxetane 1, a number of enhancer materials was examined. At pH 9.6, Enhancer A (1-trioctylphosphoniummethyl-4-tributylphosphoniummethylbenzene dichloride) increased the luminescent signal by a factor of 6.2, and Enhancer B (poly(vinylbenzyltributylphosphonium chloride)) increased the signal by a factor of 19.7. At pH 10.0, Enhancer A increased the signal by a factor of 4.8, and Enhancer B increased the signal by a factor of 18.9.
Tables 2 and 3 show the extent of enhancement by pyranine and fluorescein, respectively, in the presence of 1 mg/mL of Enhancer A.

**Q.** Which “Enhancement by fluorescer alone” value does the source give for `O=C1OC2(c3ccc(O)cc3Oc3cc(O)ccc32)c2ccccc21` [fluorescein] here?
**A.** about ten-fold
